These are yes or no findings as the source states them, for the method shown. In cells and extracts the contact can be indirect.
Molecular target: T1, TBL1XR1 (Transducin Beta Like 1 X-Linked Receptor 1) (mouse (endogenous in testis)) (UniProt Q8BHJ5)
T1 sequence: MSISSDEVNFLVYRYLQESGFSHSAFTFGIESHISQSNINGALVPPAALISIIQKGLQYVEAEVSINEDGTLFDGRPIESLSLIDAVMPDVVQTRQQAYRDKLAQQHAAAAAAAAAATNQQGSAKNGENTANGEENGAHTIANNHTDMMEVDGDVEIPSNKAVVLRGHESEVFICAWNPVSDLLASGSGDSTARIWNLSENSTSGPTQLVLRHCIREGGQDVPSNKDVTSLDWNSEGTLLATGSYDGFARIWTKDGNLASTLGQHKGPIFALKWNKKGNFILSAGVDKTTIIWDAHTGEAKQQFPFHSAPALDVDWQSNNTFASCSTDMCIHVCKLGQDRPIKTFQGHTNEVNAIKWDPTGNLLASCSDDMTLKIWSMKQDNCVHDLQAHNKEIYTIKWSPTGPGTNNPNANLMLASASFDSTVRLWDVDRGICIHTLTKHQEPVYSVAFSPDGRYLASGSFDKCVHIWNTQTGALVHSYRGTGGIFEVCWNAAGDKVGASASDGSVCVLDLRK
Test: co-IP; antibody (SLY, SLX/SLXL1, SPIN1 or TBL1XR1) cross-linked to protein A/G-coated beads, incubated with whole-testis extracts (WT or Sly-KD) for 1 h, washed in PBS pH 7.5 with 0.65% Tween, eluted with 0.1 M glycine/HCl pH 3.0; Western blot; IgG as negative control

Chains of the proteins cited; added tags and fusions are not shown.
UniProt Q61142: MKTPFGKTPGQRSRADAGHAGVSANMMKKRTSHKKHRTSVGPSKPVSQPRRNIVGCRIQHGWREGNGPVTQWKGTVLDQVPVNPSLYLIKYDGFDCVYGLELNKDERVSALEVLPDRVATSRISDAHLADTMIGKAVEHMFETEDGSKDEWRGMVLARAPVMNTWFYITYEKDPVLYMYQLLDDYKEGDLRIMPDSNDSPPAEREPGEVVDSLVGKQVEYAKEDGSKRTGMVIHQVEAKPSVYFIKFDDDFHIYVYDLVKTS

binding: no binding
Substance: SPIN1 (from UniProt Q61142 1-262)

— article PMC7743899
